Source: the supplement of paper PMC8426693
This is one part of the list.

The compounds below were run on SARS-CoV-2 5_SL8 RNA (assay: NMR binding call after quantification (hit when 2 of 3 NMR criteria are met) (binary (1 = binding, 0 = not binding)); higher = binding). Details: RNA concentration 10 µM; fragment concentration 200 µM; 293 K.
For CC(=O)NCCN1CCCCCC1, the NMR binding call was 0. In the case of COC(=O)CNC(=O)C1CCCCC1, the NMR binding call is reported as 0. Work on Fc1cccc(CNCc2ccco2)c1 yielded an NMR binding call of 0. Clc1snnc1CN1CCOCC1 gave an NMR binding call of 0. Compound N#CCC(=O)N1CCC(C(N)=O)CC1 has an NMR binding call of 0. With CCn1cc(CNC(=O)c2cccnc2)cn1 the NMR binding call was 0. In the case of CC(=O)Nc1ccc(Nc2ccccc2)cc1, the NMR binding call is reported as 0. CCOc1ccc(CC(=O)O)cc1 was tested, and the NMR binding call was 0. With Cl.NC1CCCN(C(=O)CCC(F)(F)F)C1 (stereo not given) the NMR binding call was 0. In the case of Cn1ccc(NCc2ccccc2)n1, the NMR binding call is reported as 0. For CS(=O)(=O)NC1(C(=O)O)CCCCC1, the NMR binding call was 0. For CN(CCO)S(=O)(=O)c1ccc(N)cc1, the NMR binding call was 0. In the case of O=C(CC1CCCCC1)Nn1cnnc1, the NMR binding call is reported as 0. Compound CCN(CCO)c1ccc(N)cc1 has an NMR binding call of 0. O=C(NCC1CC1)Nc1ccc2c(c1)CCO2 showed an NMR binding call of 0. Work on OC1CCN(Cc2ccsc2)CC1 yielded an NMR binding call of 0. With O=C(Nc1nc2ccccc2[nH]1)C1CCCCC1 the NMR binding call was 0. With Cc1ccccc1CC(N)=O the NMR binding call was 0. CC(=O)NC(C)(C(=O)O)C1CC1 (stereo not given) showed an NMR binding call of 0. CC(=O)Nc1ncc(Cc2cccc(C)c2)s1 was tested, and the NMR binding call was 0. For COc1cccc(C(=O)Nc2ccccc2F)c1, the NMR binding call was 0. CN(CCc1ccccn1)C(=O)c1ccccc1 was tested, and the NMR binding call was 0. COc1ccc(C(N)c2ccccc2)cc1.Cl (stereo not given) gave an NMR binding call of 0. Work on c1ccc(-c2ccc(-n3cnnn3)cc2)cc1 yielded an NMR binding call of 0. Compound NC(=O)c1cnc(C(F)(F)F)nc1 has an NMR binding call of 0. CC(=O)NCc1cncs1 gave an NMR binding call of 0. For COc1ccc(NC(=O)CN)cc1, the NMR binding call was 0. For Cc1cc(C2CCCN2S(C)(=O)=O)no1 (stereo not given), the NMR binding call was 0. Compound COC(=O)C1CCN(CC(N)=O)CC1 has an NMR binding call of 0. Work on CC(NS(C)(=O)=O)c1ccccc1Cl (stereo not given) yielded an NMR binding call of 0. NC(=O)c1ccc(NC(=O)C2CCCO2)cc1 (stereo not given) gave an NMR binding call of 0. Work on COc1ccc(CNC2CCCC2)cc1 yielded an NMR binding call of 0. OCCN1CCOCC1 was tested, and the NMR binding call was 0. Compound CNC1CCN(c2ccccc2F)C1=O.Cl (stereo not given) has an NMR binding call of 0. Compound CC1CCN(CCN)CC1 has an NMR binding call of 0. CCC(CO)NC(=O)Nc1ccc(Cl)cc1 (stereo not given) was tested, and the NMR binding call was 0. O=C(Nc1nnc(-c2ccco2)s1)C1CC1 was tested, and the NMR binding call was 0. O=C(COc1ccccc1)NC1CCCCC1 gave an NMR binding call of 0. Work on CN(C(=O)C1CC1(C)C)c1cccnc1 (stereo not given) yielded an NMR binding call of 0. CCC(=O)Nc1ccc2[nH]c(=O)[nH]c2c1 was tested, and the NMR binding call was 0.
